PMC3338775
These are yes or no findings as the source states them, for the method shown. Binding seen in cells or lysates may run through a third protein. For some of these results: A result given as binding can be weak or reduced; the word gives no strength. One block for each binder: values may come before it.

Key:
[1] = target: ITSN1-S fused to a Venus fragment (VN-ITSN1-S, VC-ITSN1-S); assay: split reporter; BiFC; VN and VC (Venus) fusions co-transfected in COS cells with CFP as marker; confocal imaging the next morning
[2] = target: HA-epitope tagged ITSN1-S; assay: co-IP; HA-tagged ITSN1-S or domains co-expressed with VN-Arfaptin2 (FLAG epitope); HA immunoprecipitates probed for FLAG; cell line not stated
[3] = target: HA-epitope tagged CC region of ITSN1; assay: as above
[4] = target: ITSN1-S fused to a Venus fragment (VN-ITSN1-S, VC-ITSN1-S); assay: split reporter; BiFC; HEK293T cells on coverslips, VN and VC fusions with CFP as marker

binding [1]: binds
B1: VC-Arfaptin2 (protein, UniProt P53365 1-341)
chain: MTDGILGKAATMEIPIHGNGEARQLPEDDGLEQDLQQVMVSGPNLNETSIVSGGYGGSGDGLIPTGSGRHPSHSTTPSGPGDEVARGIAGEKFDIVKKWGINTYKCTKQLLSERFGRGSRTVDLELELQIELLRETKRKYESVLQLGRALTAHLYSLLQTQHALGDAFADLSQKSPELQEEFGYNAETQKLLCKNGETLLGAVNFFVSSINTLVTKTMEDTLMTVKQYEAARLEYDAYRTDLEELSLGPRDAGTRGRLESAQATFQAHRDKYEKLRGDVAIKLKFLEENKIKVMHKQLLLFHNAVSAYFAGNQKQLEQTLQQFNIKLRPPGAEKPSWLEEQ

binding [2]: binds
binding [3]: binds
B2: VN-Arfaptin2 (protein, UniProt P53365 1-341)
chain: B1 chain

binding [4]: no binding
Binder: TSRLPPLGVGN [VC-pep]
